Measurements reported in PubChem BioAssay AID1259405 (NCATS, 2018)

- Purpose: 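Silenced genes that increase secreted GFP made by CHO cells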 (primary screen)
- System: Chinese hamster CHO-K1 ovary cells with stable secreted eGFP expression
- Knock-down reagent: single siRNA against mouse genes, 0.8 pmol siRNA per well (2 µl of 400 nM stock)
- Time to read-out: 3 days
- Measurement: 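Percent of the per-plate non-targeting control median for intracellular GFP per well by laser scanning cytometry and for cell viability by ATP luminescence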
- Direction: GFP, % of control: higher = more GFP per well, higher productivity; viability (ATP), % of control: higher = more viable cells (more ATP)
- Active means: 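a knock-down is called active if GFP reaches 120% or more of non-targeting control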
In all, the deposit lists about 50,000 reagents; below is an unselected part. Of all reagents, about 4,000 (8%) were called active. 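Mouse siRNA library applied to hamster cells; one well for each siRNA.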 A number with no mark means an inactive call. Reagents against one gene are numbered here. No sequences are given here.

gene symbol	siRNA no.	GFP, % of control	viability (ATP), % of control
Rabif	1	129 (active)	102
Rabif	2	84.4	57.3
Rabif	3	92.3	56
Or4a2	1	95.4	74.7
Or4a2	2	37.1	51.9
Or4a2	3	61.1	56.6
Nop16	1	74.9	110
Nop16	2	101	87.3
Nop16	3	111	69.5
Anapc5	1	93.6	81.3
Anapc5	2	86.9	81.4
Anapc5	3	75.7	72.9
Adgre4	1	34.5	51.9
Adgre4	2	79.3	74.9
Adgre4	3	75.5	71.7
Mlst8	1	41.2	70.5
Mlst8	2	72.9	84.1
Mlst8	3	29.4	21.8
Rbm28	1	107	78.4
Rbm28	2	90.4	87.6
Lama4	1	90.1	110
Lama4	2	82	105
Tbata	1	123 (active)	77.6
Tbata	2	91.8	47
Tbata	3	103	57.4
Def6	1	68.3	96.4
Def6	2	57.2	70.1
Def6	3	160 (active)	78.9
Nusap1	1	77.4	89.9
Nusap1	2	117	108
Nusap1	3	78	40.8
Ccdc66	1	77.8	83.7
Ccdc66	2	116	103
Ccdc66	3	95.6	61
Or2y14	1	84.7	86.4
Or2y14	2	78.6	92.5
Or2y14	3	31.3	57.6
Defa-rs2	1	46	71.1
Defa-rs2	2	84.8	77.2
Defa-rs2	3	133 (active)	78.4
Phf7	1	84.3	77.2
Phf7	2	57.2	75.3
Cma1	1	57.7	90.7
Cma1	2	85.1	88.3
Cma1	3	61.9	51.9
Ltk	1	58.6	62.8
Gjc1	1	64.4	60.5
Gjc1	2	138 (active)	97.9
Gjc1	3	119	101
Or8k53	1	95.5	61.5
Or8k53	2	133 (active)	89.7
Or8k53	3	65.9	81.7
Fahd1	1	45.7	27.3
Fahd1	2	88.5	98.9
Fahd1	3	53.8	66.4
Syngr2	1	56.1	58.6
Syngr2	2	109	67.7
Syngr2	3	87.9	61.9
Prkcq	1	97.8	80.6
Prkcq	2	101	74.4
Prkcq	3	149 (active)	113
Aoc1	1	80.6	81
Aoc1	2	90.5	49.8
Aoc1	3	49.8	57.6
Fkbp4	1	61.2	75
Fkbp4	2	117	110
Fkbp4	3	119	123
Ndufs7	1	82.4	91.3
Ndufs7	2	50.1	82.7
Ndufs7	3	95.8	91.9
Wbp1	1	93.3	76.2
Wbp1	2	54.5	29.1
Wbp1	3	84	102
Ppia	1	53.9	50.8
Ppia	2	74.2	81.9
Ppia	3	63.9	56.3
Abi2	1	115	93.2
Abi2	2	78.2	97.2
Abi2	3	104	95.1
Tead4	1	80.7	91
Tead4	2	83.6	59.1
Tead4	3	83.8	96.7
Kcnj14	1	70.9	82.7
Kcnj14	2	63.4	70.3
Kcnj14	3	50.2	39.9

An excerpt from above, limited to “GFP, % of control”.
Cma1 #1	57.7
Cma1 #2	85.1
Cma1 #3	61.9
Ltk	58.6
Gjc1 #1	64.4
Gjc1 #2	138 (active)
Gjc1 #3	119
Or8k53 #1	95.5
Or8k53 #2	133 (active)
Or8k53 #3	65.9
